± gives the standard deviation of the averaged measurements. This is a selection; strong and weak results do not stand in their true shares.
The targets below were run with Nc1ncnc2c1ncn2[C@@H]1O[C@H](COP(=O)(O)OP(=O)(O)NP(=O)(O)O)[C@@H](O)[C@H]1O [adenylyl imidodiphosphate] (assay: NP40-soluble protein abundance relative to vehicle (solubility fold change) (ratio); higher = more soluble protein in presence of AMP-PNP). Settings: concentration: 1mM.
Procedure, shortened: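 Across three independent experiments, values are fold changes against the detergent-processed vehicle for each replicate, based on vsn-normalised intensities. The samples were Jurkat crude lysate treated with eight concentrations (0.1 to 10 mM) for 10 min at room temperature and then 3 min at 37 °C. Lysate was solubilised with 0.8% NP40 and benzonase, ultracentrifuged, and the supernatant analysed by TMT-labelled LC-MS/MS.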

By UniProt entry, the sequences of proteins in these tests, tags left out. Where a name states a change or a piece, a line headed by the entry shows the natural chain unless it says otherwise.
UniProt Q92696: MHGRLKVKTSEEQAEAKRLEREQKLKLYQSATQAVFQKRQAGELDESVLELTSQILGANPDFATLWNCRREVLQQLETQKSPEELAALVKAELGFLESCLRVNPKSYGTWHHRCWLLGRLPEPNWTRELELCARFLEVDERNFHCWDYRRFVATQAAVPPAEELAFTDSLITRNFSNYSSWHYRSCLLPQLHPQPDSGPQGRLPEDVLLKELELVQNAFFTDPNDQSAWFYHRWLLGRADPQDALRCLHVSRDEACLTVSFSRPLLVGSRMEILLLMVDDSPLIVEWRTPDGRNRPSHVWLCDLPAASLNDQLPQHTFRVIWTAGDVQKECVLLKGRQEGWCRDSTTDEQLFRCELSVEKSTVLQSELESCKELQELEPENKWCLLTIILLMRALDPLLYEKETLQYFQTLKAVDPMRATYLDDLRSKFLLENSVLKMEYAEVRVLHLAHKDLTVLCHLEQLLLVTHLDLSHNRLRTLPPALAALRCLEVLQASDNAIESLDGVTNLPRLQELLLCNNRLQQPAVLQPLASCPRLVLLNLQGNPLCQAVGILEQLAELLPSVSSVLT
UniProt Q8NHP8: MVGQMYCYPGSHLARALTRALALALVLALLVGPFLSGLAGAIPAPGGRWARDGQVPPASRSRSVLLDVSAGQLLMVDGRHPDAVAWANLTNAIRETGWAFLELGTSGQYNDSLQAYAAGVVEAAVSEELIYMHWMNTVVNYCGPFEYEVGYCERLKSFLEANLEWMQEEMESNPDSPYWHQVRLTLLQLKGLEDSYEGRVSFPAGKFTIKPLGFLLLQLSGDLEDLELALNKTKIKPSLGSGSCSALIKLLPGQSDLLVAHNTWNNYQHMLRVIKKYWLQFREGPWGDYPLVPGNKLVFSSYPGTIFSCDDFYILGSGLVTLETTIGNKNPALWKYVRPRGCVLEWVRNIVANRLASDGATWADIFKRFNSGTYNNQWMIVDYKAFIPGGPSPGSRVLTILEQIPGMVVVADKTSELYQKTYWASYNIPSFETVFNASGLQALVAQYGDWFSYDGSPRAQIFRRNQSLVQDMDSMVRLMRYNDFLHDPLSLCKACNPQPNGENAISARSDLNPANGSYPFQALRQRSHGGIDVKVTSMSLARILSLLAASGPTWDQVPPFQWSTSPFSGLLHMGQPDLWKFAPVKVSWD
UniProt Q8TDQ7: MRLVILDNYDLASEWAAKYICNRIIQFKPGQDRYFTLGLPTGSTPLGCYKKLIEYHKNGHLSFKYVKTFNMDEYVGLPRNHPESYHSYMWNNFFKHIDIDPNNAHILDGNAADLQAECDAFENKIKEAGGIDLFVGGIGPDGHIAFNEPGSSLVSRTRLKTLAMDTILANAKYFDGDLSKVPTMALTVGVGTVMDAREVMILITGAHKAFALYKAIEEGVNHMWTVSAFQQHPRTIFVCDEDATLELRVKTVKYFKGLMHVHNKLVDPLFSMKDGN
UniProt Q8TEQ0: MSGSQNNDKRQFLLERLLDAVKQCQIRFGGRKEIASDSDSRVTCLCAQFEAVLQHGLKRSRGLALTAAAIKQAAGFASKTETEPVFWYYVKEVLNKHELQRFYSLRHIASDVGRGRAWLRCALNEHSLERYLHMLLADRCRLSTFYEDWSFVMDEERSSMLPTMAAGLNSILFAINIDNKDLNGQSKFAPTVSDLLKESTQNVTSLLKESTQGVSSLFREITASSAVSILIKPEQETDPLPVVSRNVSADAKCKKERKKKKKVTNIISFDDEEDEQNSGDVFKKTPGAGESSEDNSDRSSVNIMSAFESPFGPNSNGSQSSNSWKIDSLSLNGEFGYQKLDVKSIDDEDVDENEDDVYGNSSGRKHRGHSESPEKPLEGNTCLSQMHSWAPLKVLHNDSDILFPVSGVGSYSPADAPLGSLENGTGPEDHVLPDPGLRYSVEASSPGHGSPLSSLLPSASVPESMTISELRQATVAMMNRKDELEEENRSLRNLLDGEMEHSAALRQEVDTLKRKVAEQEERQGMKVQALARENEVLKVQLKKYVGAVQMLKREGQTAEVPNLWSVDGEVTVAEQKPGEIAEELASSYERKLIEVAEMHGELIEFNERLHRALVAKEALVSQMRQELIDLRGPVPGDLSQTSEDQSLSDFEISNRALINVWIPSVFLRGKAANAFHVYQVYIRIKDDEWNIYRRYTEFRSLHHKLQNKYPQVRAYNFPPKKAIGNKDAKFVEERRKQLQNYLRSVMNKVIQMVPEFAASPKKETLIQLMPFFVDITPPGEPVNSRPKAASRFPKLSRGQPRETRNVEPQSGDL
UniProt Q8WY91: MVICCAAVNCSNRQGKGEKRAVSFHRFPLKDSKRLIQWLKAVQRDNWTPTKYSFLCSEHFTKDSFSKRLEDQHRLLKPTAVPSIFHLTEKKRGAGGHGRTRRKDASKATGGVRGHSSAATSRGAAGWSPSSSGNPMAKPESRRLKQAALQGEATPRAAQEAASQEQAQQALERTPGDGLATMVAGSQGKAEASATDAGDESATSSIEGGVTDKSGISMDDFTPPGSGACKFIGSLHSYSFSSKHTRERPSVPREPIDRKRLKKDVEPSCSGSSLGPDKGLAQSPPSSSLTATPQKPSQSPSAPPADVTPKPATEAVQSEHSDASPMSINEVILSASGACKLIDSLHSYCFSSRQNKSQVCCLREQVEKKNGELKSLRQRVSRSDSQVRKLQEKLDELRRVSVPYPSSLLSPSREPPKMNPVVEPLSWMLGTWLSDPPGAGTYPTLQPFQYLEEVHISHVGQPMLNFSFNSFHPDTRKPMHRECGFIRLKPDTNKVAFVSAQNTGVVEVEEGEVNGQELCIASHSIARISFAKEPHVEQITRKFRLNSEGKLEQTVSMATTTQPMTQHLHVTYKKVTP
UniProt Q8ND04: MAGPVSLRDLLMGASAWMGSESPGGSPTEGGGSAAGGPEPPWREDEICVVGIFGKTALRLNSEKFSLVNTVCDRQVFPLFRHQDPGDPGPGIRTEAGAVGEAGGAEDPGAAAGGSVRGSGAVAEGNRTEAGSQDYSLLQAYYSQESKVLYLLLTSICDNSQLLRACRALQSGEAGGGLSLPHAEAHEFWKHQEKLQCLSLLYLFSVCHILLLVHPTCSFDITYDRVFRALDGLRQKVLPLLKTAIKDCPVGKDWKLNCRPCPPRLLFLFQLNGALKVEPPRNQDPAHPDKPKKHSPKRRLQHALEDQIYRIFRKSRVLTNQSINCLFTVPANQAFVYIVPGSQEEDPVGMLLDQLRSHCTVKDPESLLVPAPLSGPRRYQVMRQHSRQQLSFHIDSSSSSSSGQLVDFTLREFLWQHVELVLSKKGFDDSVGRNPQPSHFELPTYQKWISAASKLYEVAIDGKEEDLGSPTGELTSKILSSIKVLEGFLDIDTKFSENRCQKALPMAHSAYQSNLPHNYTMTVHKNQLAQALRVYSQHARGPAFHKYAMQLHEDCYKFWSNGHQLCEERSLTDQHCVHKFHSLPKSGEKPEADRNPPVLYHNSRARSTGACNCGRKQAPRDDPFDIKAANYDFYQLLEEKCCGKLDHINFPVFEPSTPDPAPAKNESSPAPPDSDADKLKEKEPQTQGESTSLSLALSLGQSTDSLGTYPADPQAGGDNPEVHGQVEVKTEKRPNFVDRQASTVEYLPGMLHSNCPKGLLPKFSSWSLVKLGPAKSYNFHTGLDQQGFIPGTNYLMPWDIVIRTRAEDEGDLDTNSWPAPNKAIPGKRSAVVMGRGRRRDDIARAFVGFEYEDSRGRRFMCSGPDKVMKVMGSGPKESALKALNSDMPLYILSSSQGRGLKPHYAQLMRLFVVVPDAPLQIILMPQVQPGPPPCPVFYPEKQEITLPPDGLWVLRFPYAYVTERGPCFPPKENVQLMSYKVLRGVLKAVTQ
UniProt Q8TAD8: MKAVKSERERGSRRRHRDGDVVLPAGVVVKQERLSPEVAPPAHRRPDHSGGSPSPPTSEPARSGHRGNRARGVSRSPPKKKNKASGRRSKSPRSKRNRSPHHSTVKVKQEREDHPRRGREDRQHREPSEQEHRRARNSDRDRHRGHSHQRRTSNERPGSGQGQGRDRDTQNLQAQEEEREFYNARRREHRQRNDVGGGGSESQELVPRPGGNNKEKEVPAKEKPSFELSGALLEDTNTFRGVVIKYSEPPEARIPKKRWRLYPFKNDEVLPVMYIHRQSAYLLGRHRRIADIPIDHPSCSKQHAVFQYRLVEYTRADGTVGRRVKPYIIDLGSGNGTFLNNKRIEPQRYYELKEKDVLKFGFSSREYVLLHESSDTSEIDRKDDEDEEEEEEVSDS
UniProt Q8ND24: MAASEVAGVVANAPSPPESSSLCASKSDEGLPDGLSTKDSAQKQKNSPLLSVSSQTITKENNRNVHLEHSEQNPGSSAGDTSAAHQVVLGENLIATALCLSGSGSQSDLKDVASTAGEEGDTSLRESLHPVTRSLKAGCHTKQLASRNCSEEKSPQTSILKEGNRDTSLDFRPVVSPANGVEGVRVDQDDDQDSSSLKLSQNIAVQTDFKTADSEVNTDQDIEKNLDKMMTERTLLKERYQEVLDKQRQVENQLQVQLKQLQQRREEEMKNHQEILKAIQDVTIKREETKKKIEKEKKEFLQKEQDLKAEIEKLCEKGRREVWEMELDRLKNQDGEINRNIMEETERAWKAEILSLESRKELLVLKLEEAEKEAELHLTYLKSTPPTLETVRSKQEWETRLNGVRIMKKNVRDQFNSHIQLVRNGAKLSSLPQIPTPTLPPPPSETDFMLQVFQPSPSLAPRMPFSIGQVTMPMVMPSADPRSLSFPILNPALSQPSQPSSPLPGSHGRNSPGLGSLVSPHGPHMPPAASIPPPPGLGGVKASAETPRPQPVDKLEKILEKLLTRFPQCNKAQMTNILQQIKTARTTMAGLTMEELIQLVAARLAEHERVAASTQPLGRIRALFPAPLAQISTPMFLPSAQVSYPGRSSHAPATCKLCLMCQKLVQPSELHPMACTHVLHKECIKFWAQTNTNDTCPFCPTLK
UniProt Q8WXE0: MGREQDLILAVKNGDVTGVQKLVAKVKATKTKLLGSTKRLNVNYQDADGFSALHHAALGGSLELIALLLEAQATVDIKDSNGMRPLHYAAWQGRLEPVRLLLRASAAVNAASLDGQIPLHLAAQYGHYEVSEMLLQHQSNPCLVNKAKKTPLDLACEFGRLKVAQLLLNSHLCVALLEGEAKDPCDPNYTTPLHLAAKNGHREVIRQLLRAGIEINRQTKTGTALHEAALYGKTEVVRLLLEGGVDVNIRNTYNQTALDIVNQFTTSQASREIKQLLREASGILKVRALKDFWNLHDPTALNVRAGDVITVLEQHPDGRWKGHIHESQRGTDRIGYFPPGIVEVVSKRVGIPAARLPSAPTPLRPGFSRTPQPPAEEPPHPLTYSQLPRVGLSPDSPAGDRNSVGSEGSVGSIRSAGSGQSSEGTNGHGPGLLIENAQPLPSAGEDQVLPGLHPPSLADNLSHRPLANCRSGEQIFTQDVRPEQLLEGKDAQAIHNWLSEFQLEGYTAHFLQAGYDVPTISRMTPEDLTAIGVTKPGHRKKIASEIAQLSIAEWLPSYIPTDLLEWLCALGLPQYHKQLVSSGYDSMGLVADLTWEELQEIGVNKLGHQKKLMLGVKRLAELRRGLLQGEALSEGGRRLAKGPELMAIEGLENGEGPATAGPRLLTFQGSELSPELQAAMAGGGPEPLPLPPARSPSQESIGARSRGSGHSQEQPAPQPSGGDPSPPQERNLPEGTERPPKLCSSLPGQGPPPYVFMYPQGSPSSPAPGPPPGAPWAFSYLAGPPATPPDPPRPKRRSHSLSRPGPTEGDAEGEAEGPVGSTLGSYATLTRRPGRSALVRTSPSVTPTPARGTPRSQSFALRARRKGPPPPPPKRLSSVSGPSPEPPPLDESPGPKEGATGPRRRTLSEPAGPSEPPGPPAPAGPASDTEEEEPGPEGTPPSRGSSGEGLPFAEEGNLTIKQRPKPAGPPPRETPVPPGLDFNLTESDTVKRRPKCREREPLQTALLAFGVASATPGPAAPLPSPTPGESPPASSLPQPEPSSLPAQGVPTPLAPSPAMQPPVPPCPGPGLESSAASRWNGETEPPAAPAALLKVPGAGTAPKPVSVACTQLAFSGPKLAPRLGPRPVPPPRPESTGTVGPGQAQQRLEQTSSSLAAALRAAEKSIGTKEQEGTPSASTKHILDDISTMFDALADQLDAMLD
UniProt Q8WV93: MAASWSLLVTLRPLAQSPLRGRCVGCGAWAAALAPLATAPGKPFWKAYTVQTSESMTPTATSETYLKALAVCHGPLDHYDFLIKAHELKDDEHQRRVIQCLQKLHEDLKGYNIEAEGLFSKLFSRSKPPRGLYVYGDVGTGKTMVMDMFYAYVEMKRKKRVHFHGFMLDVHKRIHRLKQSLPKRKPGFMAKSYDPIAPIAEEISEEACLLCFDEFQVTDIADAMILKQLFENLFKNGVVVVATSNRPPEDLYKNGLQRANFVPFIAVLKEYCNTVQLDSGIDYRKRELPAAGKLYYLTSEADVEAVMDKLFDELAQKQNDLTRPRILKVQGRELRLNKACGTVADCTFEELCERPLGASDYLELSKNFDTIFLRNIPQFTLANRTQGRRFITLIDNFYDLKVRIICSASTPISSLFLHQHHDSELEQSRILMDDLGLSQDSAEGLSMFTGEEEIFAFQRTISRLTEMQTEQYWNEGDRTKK

Target	NP40-soluble protein abundance
RABGGTA (UniProt Q92696)	0.953 ± 0.027
PLBD2 (UniProt Q8NHP8)	0.973 ± 0.029
UniProt Q8TDQ7 and related entries	1 ± 0.027
UniProt Q8TEQ0 and related entries	1.02 ± 0.035
UniProt Q92796-3	1.04 ± 0.027
THAP4 (UniProt Q8WY91)	0.9738 ± 0.0091
UniProt Q8ND04 and related entries	1.02 ± 0.024
GTF2H4 (UniProt Q92759)	1.008 ± 0.0089
SNIP1 (UniProt Q8TAD8)	1.016 ± 0.0054
RNF214 (UniProt Q8ND24)	1.02 ± 0.021
MITD1 (UniProt Q8WV92)	1.034 ± 0.0031
UniProt Q8WXE0 and related entries	1.02 ± 0.05
UniProt Q8WV93	0.971 ± 0.12

Same assay, conditions: concentration: 2mM

Target	NP40-soluble protein abundance
UniProt Q8TCT7 and related entries	0.992 ± 0.037
CORO2A (UniProt Q92828)	0.959 ± 0.055
UniProt Q8NDI1-2|Q8NDI1-3	0.947 ± 0.04
PNPT1 (UniProt Q8TCS8)	0.93 ± 0.054
UniProt Q92734 and related entries	1.06 ± 0.055
ABHD11 (UniProt Q8NFV4)	1.046 ± 0.0096
UniProt Q92619	1.04 ± 0.042
UniProt Q92784 and related entries	1.01 ± 0.017
SRFBP1 (UniProt Q8NEF9)	1.07 ± 0.048
PDCD6IP (UniProt Q8WUM4)	1.02 ± 0.03
UniProt Q8WZA9	1.08 ± 0.07
UniProt Q92859 and related entries	1.01 ± 0.042
MOSPD2 (UniProt Q8NHP6)	0.959 ± 0.065
UniProt Q8NDX5 and related entries	1.017 ± 0.0026
RNF169 (UniProt Q8NCN4)	1.08 ± 0.061
PIEZO1 (UniProt Q92508)	0.9827 ± 0.007
UniProt Q8TCC3 and related entries	1.05 ± 0.066
UniProt Q92538 and related entries	0.941 ± 0.029
UniProt Q8TEB1 and related entries	0.98 ± 0.06
UniProt Q8TF05 and related entries	0.935 ± 0.014

Target	NP40-soluble protein abundance
ZNRF2 (UniProt Q8NHG8)	1.1 ± 0.068
ENGASE (UniProt Q8NFI3)	0.967 ± 0.045
CXorf38 (UniProt Q8TB03)	1.01 ± 0.023
NANP (UniProt Q8TBE9)	0.988 ± 0.011
GPT2 (UniProt Q8TD30)	0.964 ± 0.023
PPIL4 (UniProt Q8WUA2)	1.04 ± 0.018
HSD17B8 (UniProt Q92506)	1.03 ± 0.031
RABGGTA (UniProt Q92696)	0.874 ± 0.11
PLBD2 (UniProt Q8NHP8)	1 ± 0.032
UniProt Q8TDQ7 and related entries	0.968 ± 0.061
UniProt Q8TEQ0 and related entries	1.03 ± 0.047
UniProt Q92796-3	1.048 ± 0.0018
THAP4 (UniProt Q8WY91)	0.981 ± 0.032
UniProt Q8ND04 and related entries	0.999 ± 0.025
GTF2H4 (UniProt Q92759)	0.961 ± 0.045
SNIP1 (UniProt Q8TAD8)	0.999 ± 0.017
RNF214 (UniProt Q8ND24)	1.04 ± 0.053
MITD1 (UniProt Q8WV92)	1.04 ± 0.0073
UniProt Q8WXE0 and related entries	1.06 ± 0.076
UniProt Q8WV93	0.943 ± 0.13

Same assay, conditions: concentration: 4mM

Target	NP40-soluble protein abundance
UniProt Q8TCT7 and related entries	0.988 ± 0.018
CORO2A (UniProt Q92828)	1.02 ± 0.021
UniProt Q8NDI1-2|Q8NDI1-3	0.951 ± 0.036
PNPT1 (UniProt Q8TCS8)	0.947 ± 0.016
UniProt Q92734 and related entries	1.01 ± 0.012
ABHD11 (UniProt Q8NFV4)	1.04 ± 0.023
UniProt Q92619	1.04 ± 0.053
UniProt Q92784 and related entries	0.99 ± 0.034
SRFBP1 (UniProt Q8NEF9)	1.04 ± 0.021
PDCD6IP (UniProt Q8WUM4)	0.9732 ± 0.0074
UniProt Q8WZA9	1.04 ± 0.059
UniProt Q92859 and related entries	1.002 ± 0.0089
MOSPD2 (UniProt Q8NHP6)	0.989 ± 0.06
UniProt Q8NDX5 and related entries	1.04 ± 0.045
RNF169 (UniProt Q8NCN4)	1.08 ± 0.047
PIEZO1 (UniProt Q92508)	1 ± 0.018
UniProt Q8TCC3 and related entries	1.01 ± 0.1
UniProt Q92538 and related entries	0.948 ± 0.018
UniProt Q8TEB1 and related entries	0.976 ± 0.034
UniProt Q8TF05 and related entries	0.964 ± 0.017

Target	NP40-soluble protein abundance
ZNRF2 (UniProt Q8NHG8)	1 ± 0.027
ENGASE (UniProt Q8NFI3)	1.007 ± 0.0092
CXorf38 (UniProt Q8TB03)	1 ± 0.042
NANP (UniProt Q8TBE9)	1 ± 0.04
GPT2 (UniProt Q8TD30)	0.945 ± 0.031
PPIL4 (UniProt Q8WUA2)	1.03 ± 0.034
HSD17B8 (UniProt Q92506)	1.04 ± 0.018
RABGGTA (UniProt Q92696)	0.9467 ± 0.0094
PLBD2 (UniProt Q8NHP8)	0.977 ± 0.049
UniProt Q8TDQ7 and related entries	0.984 ± 0.037
UniProt Q8TEQ0 and related entries	1.01 ± 0.029
UniProt Q92796-3	1.05 ± 0.013
THAP4 (UniProt Q8WY91)	0.9413 ± 0.0054
UniProt Q8ND04 and related entries	1.03 ± 0.014
GTF2H4 (UniProt Q92759)	1.01 ± 0.018
SNIP1 (UniProt Q8TAD8)	0.983 ± 0.048
RNF214 (UniProt Q8ND24)	1.02 ± 0.042
MITD1 (UniProt Q8WV92)	1.05 ± 0.01
UniProt Q8WXE0 and related entries	1.07 ± 0.021
UniProt Q8WV93	0.993 ± 0.18

From the supplement of paper PMC6411743
